# Laboratory results from US20220274973A1, “Methods And Compositions For Treating Sickle Cell Disease With A Ferroportin Inhibitor (VIT-2763)” (Vifor (International) AG, priority 2019, published 2022).
# At least one structure is not confirmed: it was looked up by name or label, or the drawing left a doubt.
# Key:
# Format in all cases: in vivo, mouse
# Townes mice (HbSS) [1] = test: First study: total iron (ICP-OES) and 58Fe (ICP-MS) in organs; settings: 6 weeks
# RBCs from HbSS mice = test: Second study: intracellular ROS in mature RBCs (CM-H2DCFDA flow cytometry); settings: 60 mg/kg bid, CM-H2DCFDA (FIG. 13 right)
# Townes mice (HbSS) [2] = test: First study: plasma sVCAM-1 ELISA; settings: ELISA (FIG. 7)
# Townes mice (HbSS) [3] = test: First study: hematologic parameters (RBC and WBC indices) on automated blood cell analyzer
# Townes mice (HbSS) [4] = test: Liver CXCL1 mRNA expression (RT-qPCR); settings: RT-qPCR (FIG. 15)
# RBCs of Townes mice [5] = test: RBC intracellular iron content (56Fe, 58Fe) by ICP-MS; settings: washed RBCs, normalized to RBC counts (FIG. 14)
# RBCs of Townes mice [6] = test: First study: flow cytometry of RBCs (annexin V PS exposure, MitoTracker mitochondria retention)
# Townes mice (HbSS) [7] = test: Lung IL-1β mRNA expression (RT-qPCR); settings: decrease was not significant (FIG. 17)
# Townes mice (HbSS) [8] = test: Second study: plasma sP-selectin and RANTES ELISA
# Townes mice (HbSS) [9] = test: Liver histology: periportal inflammation score (H&E); settings: 6 weeks treatment, vs vehicle-treated Townes mice (FIG. 15)
# Townes mice (HbSS) [10] = test: First study: spleen, liver and kidney size/weight
# Townes mice (HbSS) [11] = test: Plasma alanine transaminase (ALT) activity; settings: Townes mice (FIG. 16)
# Townes mice (HbSS) [12] = test: Second study: plasma iron (MULTIGENT Iron assay); settings: 60 mg/kg bid, 44 days, 3 h after the last dose (FIG. 8)
# Townes mice (HbSS) [13] = test: First study: plasma hemolysis markers (cell-free Hb, heme, LDH) in Townes mice; settings: 60 or 120 mg/kg p.o. bid, 6 weeks, vs HbSS vehicle (FIG. 1)
# Townes mice (HbSS) [14] = test: Second study: plasma xanthine oxidase activity assay; settings: second study (FIG. 13 left)
# Townes mice (HbSS) [15] = test: Second study: hematological parameters (Siemens Advia 120); settings: 60 mg/kg bid
# Townes mice (HbSS) [16] = test: Second study: plasma bilirubin assay kit; settings: day 43/44 (FIG. 11)
# [17] = ICP-MS, vs vehicle (FIG. 5, lower panels)
# [18] = HbSS mice, oral, six weeks (FIG. 2)
# [19] = Townes mice, first study (FIG. 3)
smiles,measurement,setting,value
O=C(NCc1ncccc1F)c1coc(CCNCCc2nc3ccccc3[nH]2)n1 [Compound 127],58Fe concentration in kidneys,Townes mice (HbSS) [1]; [17],significantly lower
same,58Fe concentration in livers,Townes mice (HbSS) [1]; [17],significantly lower
same,58Fe concentration in spleens,Townes mice (HbSS) [1]; [17],significantly lower
same,total liver iron concentration,"Townes mice (HbSS) [1]; ICP-OES (FIG. 5, upper left)",did not change
same,spleen iron content,"Townes mice (HbSS) [1]; ICP-OES (FIG. 5, upper middle)",did not change
same,total iron concentration in kidneys,"Townes mice (HbSS) [1]; ICP-OES (FIG. 5, upper right)",significantly decreased
same,intracellular ROS in RBCs,RBCs from HbSS mice,lowered them significantly
same,plasma sVCAM-1 levels,Townes mice (HbSS) [2],significantly lowered
same,RBC counts,Townes mice (HbSS) [3]; [18],decreased
same,hematocrit,Townes mice (HbSS) [3]; [18],decreased
same,mean corpuscular hemoglobin (MCH),Townes mice (HbSS) [3]; [18],decreased
same,mean corpuscular volume (MCV),Townes mice (HbSS) [3]; [18],decreased
same,reticulocyte counts,Townes mice (HbSS) [3]; [18],lowered significantly
same,total Hb,Townes mice (HbSS) [3]; [18],decreased
same,blood leukocyte counts,Townes mice (HbSS) [3]; [19],significantly lowered
same,blood lymphocytes,Townes mice (HbSS) [3]; [19],significantly lowered
same,blood neutrophils,Townes mice (HbSS) [3]; [19],significantly lowered
same,CXCL1 mRNA expression in the liver,Townes mice (HbSS) [4],significantly reduced
same,intracellular 56Fe content in RBCs,RBCs of Townes mice [5],normalized
same,intracellular 58Fe content in RBCs,RBCs of Townes mice [5],normalized
same,phosphatidylserine (PS) exposure on sRBCs,"RBCs of Townes mice [6]; annexin V staining, flow cytometry (FIG. 6, left)",decreased PS exposure on sRBCs in a dose-dependent manner
same,proportion of mature RBCs containing mitochondria,"RBCs of Townes mice [6]; both doses, Ter119/CD71/MitoTracker flow cytometry (FIG. 6, right)",lower proportion
same,IL-1β mRNA expression in the lungs,Townes mice (HbSS) [7],reduced
same,plasma RANTES (CCL5) levels,"Townes mice (HbSS) [8]; HbSS mice, second study (FIG. 12, right)",significantly reduced
same,plasma sP-selectin,"Townes mice (HbSS) [8]; second study, end of study (FIG. 12 left)",significantly reduced
same,occurrence of periportal inflammation (histological score 0-3),Townes mice (HbSS) [9],significant reduction
same,spleen size,"Townes mice (HbSS) [10]; first study (FIG. 4, left)",reduced
same,liver weight,"Townes mice (HbSS) [10]; first study (FIG. 4, middle)",corrected the increased liver weight of Townes mice to levels close to WT
same,kidney weight,"Townes mice (HbSS) [10]; first study (FIG. 4, right)",did not change
same,plasma ALT levels,Townes mice (HbSS) [11],significantly lowered
same,plasma iron levels,Townes mice (HbSS) [12],significantly reduced
same,plasma level of LDH,Townes mice (HbSS) [13],decreased significantly
same,plasma level of cell-free Hb,Townes mice (HbSS) [13],decreased significantly
same,plasma level of heme,Townes mice (HbSS) [13],decreased significantly
same,xanthine oxidase (XO) activity in plasma,Townes mice (HbSS) [14],lowered
same,mean corpuscular hemoglobin concentration (MCHC),"Townes mice (HbSS) [15]; day 43/44 (FIG. 9, left)",significantly lowered
same,corpuscular Hb concentration mean (CHCM),"Townes mice (HbSS) [15]; day 43/44 (FIG. 9, right)",significantly lower
same,macrocytic RBCs,Townes mice (HbSS) [15]; day 43/44 (FIG. 10),reduction
same,percentage of hypochromic RBCs,Townes mice (HbSS) [15]; day 43/44 (FIG. 10),significant increase
same,percentage of microcytic RBCs,Townes mice (HbSS) [15]; day 43/44 (FIG. 10),significant increase
same,indirect bilirubin in plasma,Townes mice (HbSS) [16],lowered
same,total bilirubin in plasma,Townes mice (HbSS) [16],lowered
